Among the data in publication PMC7819943, “Rice protein-binding microarrays: a tool to detect cis-acting elements near promoter regions in rice” are binding signal values, retold here.

Sequences of proteins named here, by UniProt entry; tags and fusion partners are left off.
UniProt Q0JBA9, entry or part of it: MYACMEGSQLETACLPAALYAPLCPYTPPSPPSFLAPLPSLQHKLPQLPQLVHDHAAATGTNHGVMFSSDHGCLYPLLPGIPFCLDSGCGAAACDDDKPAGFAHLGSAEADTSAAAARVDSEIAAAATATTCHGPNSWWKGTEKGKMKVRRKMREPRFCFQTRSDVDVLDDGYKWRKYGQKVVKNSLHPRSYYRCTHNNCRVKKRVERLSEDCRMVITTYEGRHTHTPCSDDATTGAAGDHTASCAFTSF

This is one part of the list.

For the assay, the target named is OsWRKY34 (Oryza sativa, UniProt Q0JBA9 1-250). The assay can be described thus: protein-binding microarray (RPBM); PBS, 2% BSA, 51.3 ng/ul salmon testes DNA, 50 uM zinc acetate, 200 nM TF, 25 C, 1 h; high values mean tight binding. The note with it: protein: recombinant; tags: N-terminal polyhistidine and DsRed monomer fusion (pET32a); label: CyDye5-dUTP incorporated in the synthesized complementary strand; 3' TTTTT single-stranded linker to array surface; dsDNA, one strand shown. In short, it runs like this: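 Ni–NTA purification followed expression in E. coli BL21-CodonPlus of transcription factors fused N-terminally to a polyhistidine tag and DsRed. At 200 nM in PBS with 2% BSA, salmon testes DNA and 50 µM zinc acetate, the protein was incubated for 1 h at 25 °C with a custom Agilent array that had been primer-extended with Cy5-dUTP and blocked with 2% BSA. After washing, the array was read on an Axon 4000B scanner. The binding signal is per-feature fluorescence intensity in arbitrary units.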
Take “TTTTCTCAATTGGATAGTCCATATTTTGTTGCCTATGAACCGGAGTCACCTAGTGCAG”: the binding signal is 8250 fluorescence intensity (a.u.).
As for “CCCTATATACGCAAGCTTCCTTCCACCTCGCCCTTTTACTCGGAGTCACCTAGTGCAG”, the figure is 8660 fluorescence intensity (a.u.); as for “CTCCGCCGCTCGCTCCGACTCCGAGCCTTAAACCCTTCTGCGGAGTCACCTAGTGCAG”, 11400 fluorescence intensity (a.u.); as for “GGTCGCGTCGCCCCGCTCCAACTCTCCAAGCGGAAACACACGGAGTCACCTAGTGCAG”, 8890 fluorescence intensity (a.u.).
For “AACGTTGATTTGTTGATAGAGTATGGTTATTGATGCCCCTCGGAGTCACCTAGTGCAG” the value was 8240 fluorescence intensity (a.u.).
As for “AATTGCTCTTGCGGCGCCGCGGATTCTTCGTCTCCACCACCGGAGTCACCTAGTGCAG”, the figure is 8080 fluorescence intensity (a.u.).
Consider “GACATTCCCCACGACACCTCTCTCTTCCTCTCGCTCTTGGCGGAGTCACCTAGTGCAG”, for which the binding signal is 8680 fluorescence intensity (a.u.).
For “GCGAGGGAATTTCGCGTTGTTTTTTTTGTGTTTCCTTCGCCGGAGTCACCTAGTGCAG” the value was 13300 fluorescence intensity (a.u.); for “TGTGCGGTTTCGTTTCTTGGTTTGGATTTTACGGGAGGTGCGGAGTCACCTAGTGCAG”, 11500 fluorescence intensity (a.u.); for “ATCTTCCACACGATTTTCGCCTATAAAATGCACGGTAAACCGGAGTCACCTAGTGCAG”, 8450 fluorescence intensity (a.u.).
As to “AACTCTACAATCAACAAATCCCCATTTGCAACGGTCAAAACGGAGTCACCTAGTGCAG”, the binding signal is 8280 fluorescence intensity (a.u.).
In the case of “ACATACAAACTTCCAACTTTTCCGTCACATCGTTTTAATTCGGAGTCACCTAGTGCAG”, the binding signal was 8770 fluorescence intensity (a.u.).
For “GTAGTGGTTGGATCTGCGATTTTGGAATTTTTTTGAGGGGCGGAGTCACCTAGTGCAG” the value was 10200 fluorescence intensity (a.u.); for “ACATGGTGACATACTTTTTCTAATGCTGTTTCATCTTATTCGGAGTCACCTAGTGCAG”, 15000 fluorescence intensity (a.u.); for “GAGGTCACACGAGAGAAGGGCCCTCAGTGCTCTCATTGACCGGAGTCACCTAGTGCAG”, 9910 fluorescence intensity (a.u.).
For “AATATATTTAGTTTTGGACTCGTTTGTTCCTCTCACCATCCGGAGTCACCTAGTGCAG” the value was 8100 fluorescence intensity (a.u.); for “CAGCCGCTCGCCTCGTTGCTCCCGTGCTGTGCTCTGCTCACGGAGTCACCTAGTGCAG”, 9030 fluorescence intensity (a.u.); for “CATCCCCTCTGTTACGACCGCTCATTCTCTCGTCTCTCAGCGGAGTCACCTAGTGCAG”, 9420 fluorescence intensity (a.u.).
For “GAATTAACGGCCGATCGATCTAACCTCACCAAGTTAACCTCGGAGTCACCTAGTGCAG” the value was 8760 fluorescence intensity (a.u.); for “TCTTAAAATTTTGGCCTTGTTTACTTCCTTGCCATTCTCACGGAGTCACCTAGTGCAG”, 12000 fluorescence intensity (a.u.); for “GCGTGCGTCAGATCGCCTGTCGCCACCTAACCCGCGATCTCGGAGTCACCTAGTGCAG”, 8940 fluorescence intensity (a.u.).
Take “TCCTCTGTTCTCCTTCTCTGTTCCATTGCTAGCAAAATAACGGAGTCACCTAGTGCAG”: the binding signal was 8480 fluorescence intensity (a.u.).
As for “GATGTGGATTTGGGATGTTAATTTGATTTGGGATTTGGGGCGGAGTCACCTAGTGCAG”, the figure is 10600 fluorescence intensity (a.u.).
As for “TATTTCGTTTATCTATCAATTTCTTGACTGAAGATACTGTCGGAGTCACCTAGTGCAG”, the figure is 8610 fluorescence intensity (a.u.).
As for “TATTTTCGCAATCCTTTGCAATTTCTTGGATTCTTCAGTACGGAGTCACCTAGTGCAG”, the figure is 8810 fluorescence intensity (a.u.).
For “CACTCACTTCTACCTACTTTCTTAATAACAATGTCCAACTCGGAGTCACCTAGTGCAG”, the binding signal was 10100 fluorescence intensity (a.u.).
Consider “CTATCATTCATACTTCGGTCTACCATGTGTTTATTTGAAGCGGAGTCACCTAGTGCAG”, for which the binding signal was 11100 fluorescence intensity (a.u.).
As for “ATGGCAACAGCAGCAGCCGTACGTTGCCGTCGCCGTCACGCGGAGTCACCTAGTGCAG”, the figure is 9970 fluorescence intensity (a.u.).
As to “GACTGTACCTTCAAAATTTTGACGGATGTCACCCGAGTACCGGAGTCACCTAGTGCAG”, the binding signal is 8520 fluorescence intensity (a.u.).
As for “CCTCCTCACAACCGCATGTCGCCGATTCCCTGCCGCATCTCGGAGTCACCTAGTGCAG”, the figure is 9980 fluorescence intensity (a.u.).
As for “AGCATTTCCTGACCCTATTATCATTCGTATTTAGTCTGCCCGGAGTCACCTAGTGCAG”, the figure is 11400 fluorescence intensity (a.u.).
For “CTGCTAGCCCGGTTAATCTACCAAAACCCGTCTTGATTTACGGAGTCACCTAGTGCAG” the value was 9070 fluorescence intensity (a.u.); for “GGCCGGCTGGTTACCATTCTCTCTCTTCTACCCAATTCAACGGAGTCACCTAGTGCAG”, 9120 fluorescence intensity (a.u.); for “TGTTATGTATACACAGATTACTCAAAATTGTTGTACTGTCCGGAGTCACCTAGTGCAG”, 8040 fluorescence intensity (a.u.).
For the sequence “CCCACCCACCACCCACGAATTCTTGCACTACACATCAGATCGGAGTCACCTAGTGCAG”, the binding signal is 9560 fluorescence intensity (a.u.).
As for “TCCCTCCCGTCTCGTCTCCGCTCATTGCGCCATCTCGCGCCGGAGTCACCTAGTGCAG”, the figure is 8660 fluorescence intensity (a.u.); as for “GATCAATATTGTGTGACTTTTTTAAACCTGCCTGCTTATTCGGAGTCACCTAGTGCAG”, 10400 fluorescence intensity (a.u.); as for “ACCTGCACACCCACGACACGTCGCGCCGCTCATGCCCTTTCGGAGTCACCTAGTGCAG”, 9350 fluorescence intensity (a.u.).
For “GGTGGTGTTTGGATACAGGGACTGATCCTGTCATATCAGACGGAGTCACCTAGTGCAG” the value was 9620 fluorescence intensity (a.u.); for “GTCTCACAGGTACCAACTTTATCACTTTACTAACTTTTTCCGGAGTCACCTAGTGCAG”, 11400 fluorescence intensity (a.u.).
For “AAGTGGTGTTCTTGTTGTGCATTTGAGCCATTTAACCAAACGGAGTCACCTAGTGCAG”, the binding signal is 9550 fluorescence intensity (a.u.).
For “AACCTGTCATTCTCTCCGTTGATATCCAATTTGGCTGATCCGGAGTCACCTAGTGCAG” the value was 8750 fluorescence intensity (a.u.).
